Some of the results follow.
Key:
Assay in all cases: log2 fold change, soluble protein after heating vs DMSO (PISA); higher = thermal stabilisation; K562 lysate, 10 uM; active = over 0.2 and 3.5 SD of the protein, either way, in both replicates (recomputed)
[1] = compound: Cc1cn(-c2cc(NC(=O)c3ccc(C)c(Nc4nccc(-c5cccnc5)n4)c3)cc(C(F)(F)F)c2)cn1 [nilotinib]
Method in brief: (§1)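 Following dounce homogenisation of K562 pellets in PBS pH 7.4 with 1 mM MgCl2, crude extract at 1 mg/mL protein was incubated for 30 min with 10 μM compound. Aliquots were then heated for 3 min over 48°C-58°C and pooled, NP-40 was added to 0.5% at 4°C, and soluble protein was recovered as the supernatant at 21,000xg for 90 min. Channel-sum-equalised TMTpro 16plex LC-MS/MS quantified this protein. Each value, from duplicates, is a log-two fold change in thermal stability relative to solvent controls.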

Chains of the proteins cited; added tags and fusions are not shown. Lines headed by an entry give the natural chain unless they say otherwise; changes in a name come on top.
UniProt Q9Y2G2: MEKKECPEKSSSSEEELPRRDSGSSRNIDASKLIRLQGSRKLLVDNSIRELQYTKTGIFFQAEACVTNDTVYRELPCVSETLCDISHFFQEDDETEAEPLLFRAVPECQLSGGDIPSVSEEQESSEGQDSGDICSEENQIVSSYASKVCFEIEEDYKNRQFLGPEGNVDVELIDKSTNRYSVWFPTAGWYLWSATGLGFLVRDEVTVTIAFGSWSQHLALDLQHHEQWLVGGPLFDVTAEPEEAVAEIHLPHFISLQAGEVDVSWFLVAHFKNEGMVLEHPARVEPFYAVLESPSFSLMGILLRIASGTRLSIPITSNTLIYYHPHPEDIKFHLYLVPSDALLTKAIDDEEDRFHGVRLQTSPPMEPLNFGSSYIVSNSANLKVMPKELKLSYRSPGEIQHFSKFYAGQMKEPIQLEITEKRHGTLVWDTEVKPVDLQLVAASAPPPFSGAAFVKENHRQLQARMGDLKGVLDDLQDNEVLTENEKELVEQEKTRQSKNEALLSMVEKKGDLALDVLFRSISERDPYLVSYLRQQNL
UniProt Q96CT7: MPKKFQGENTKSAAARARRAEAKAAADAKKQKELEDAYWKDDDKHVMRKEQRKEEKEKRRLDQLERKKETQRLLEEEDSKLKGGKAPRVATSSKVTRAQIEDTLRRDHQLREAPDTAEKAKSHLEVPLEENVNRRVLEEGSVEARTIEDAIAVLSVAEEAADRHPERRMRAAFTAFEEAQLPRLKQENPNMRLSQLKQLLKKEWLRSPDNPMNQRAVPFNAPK
UniProt P35520: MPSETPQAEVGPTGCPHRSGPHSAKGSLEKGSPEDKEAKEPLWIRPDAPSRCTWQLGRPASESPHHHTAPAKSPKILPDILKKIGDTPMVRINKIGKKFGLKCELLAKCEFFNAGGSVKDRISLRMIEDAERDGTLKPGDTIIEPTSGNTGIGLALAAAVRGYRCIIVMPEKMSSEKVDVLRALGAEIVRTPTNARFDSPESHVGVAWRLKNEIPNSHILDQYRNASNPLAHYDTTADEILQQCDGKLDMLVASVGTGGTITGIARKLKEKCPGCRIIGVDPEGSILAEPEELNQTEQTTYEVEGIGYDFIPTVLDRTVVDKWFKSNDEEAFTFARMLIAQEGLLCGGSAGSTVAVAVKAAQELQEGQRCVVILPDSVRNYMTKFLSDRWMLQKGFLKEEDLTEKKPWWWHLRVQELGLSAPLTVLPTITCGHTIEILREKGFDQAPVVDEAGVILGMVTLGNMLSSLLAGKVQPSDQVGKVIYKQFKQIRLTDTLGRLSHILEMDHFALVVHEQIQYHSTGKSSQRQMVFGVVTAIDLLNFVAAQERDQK
UniProt Q8N163, whole entry, looked up: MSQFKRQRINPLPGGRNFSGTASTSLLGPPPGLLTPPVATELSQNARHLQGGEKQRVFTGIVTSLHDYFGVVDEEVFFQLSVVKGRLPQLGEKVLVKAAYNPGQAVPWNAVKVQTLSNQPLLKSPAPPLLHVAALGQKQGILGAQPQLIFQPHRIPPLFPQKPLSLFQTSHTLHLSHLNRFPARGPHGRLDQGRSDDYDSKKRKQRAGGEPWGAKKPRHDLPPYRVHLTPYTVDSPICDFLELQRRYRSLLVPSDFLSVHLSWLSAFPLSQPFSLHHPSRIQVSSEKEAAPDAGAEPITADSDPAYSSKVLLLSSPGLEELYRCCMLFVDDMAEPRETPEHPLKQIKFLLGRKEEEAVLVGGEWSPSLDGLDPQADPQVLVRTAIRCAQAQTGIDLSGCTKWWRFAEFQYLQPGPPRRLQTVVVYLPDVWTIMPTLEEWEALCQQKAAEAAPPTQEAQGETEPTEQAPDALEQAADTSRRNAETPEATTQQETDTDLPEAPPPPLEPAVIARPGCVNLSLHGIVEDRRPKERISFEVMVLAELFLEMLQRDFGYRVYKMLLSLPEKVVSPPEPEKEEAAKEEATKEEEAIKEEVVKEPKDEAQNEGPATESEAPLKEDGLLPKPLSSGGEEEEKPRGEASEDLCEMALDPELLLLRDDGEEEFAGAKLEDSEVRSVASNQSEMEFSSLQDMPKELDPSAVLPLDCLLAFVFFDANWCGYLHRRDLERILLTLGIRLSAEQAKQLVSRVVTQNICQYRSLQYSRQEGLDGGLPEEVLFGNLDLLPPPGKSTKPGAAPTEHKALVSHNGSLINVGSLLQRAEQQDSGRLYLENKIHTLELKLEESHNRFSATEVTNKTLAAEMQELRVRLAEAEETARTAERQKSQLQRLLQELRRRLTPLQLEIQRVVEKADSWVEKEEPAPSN
UniProt P50991: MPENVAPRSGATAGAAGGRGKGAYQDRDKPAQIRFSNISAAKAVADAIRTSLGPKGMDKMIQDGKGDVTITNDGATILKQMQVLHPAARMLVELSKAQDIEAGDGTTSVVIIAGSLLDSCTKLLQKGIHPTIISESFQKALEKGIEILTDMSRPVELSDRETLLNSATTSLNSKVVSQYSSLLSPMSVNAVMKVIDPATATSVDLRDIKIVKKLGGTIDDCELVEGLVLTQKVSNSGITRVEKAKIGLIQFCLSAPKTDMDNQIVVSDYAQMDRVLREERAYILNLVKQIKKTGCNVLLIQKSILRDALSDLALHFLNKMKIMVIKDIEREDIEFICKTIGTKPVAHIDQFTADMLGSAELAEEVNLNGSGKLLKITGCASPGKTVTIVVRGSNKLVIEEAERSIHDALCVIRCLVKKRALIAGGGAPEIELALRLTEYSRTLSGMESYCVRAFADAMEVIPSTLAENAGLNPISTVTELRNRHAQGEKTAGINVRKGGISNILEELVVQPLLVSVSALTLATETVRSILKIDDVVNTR
UniProt O43439: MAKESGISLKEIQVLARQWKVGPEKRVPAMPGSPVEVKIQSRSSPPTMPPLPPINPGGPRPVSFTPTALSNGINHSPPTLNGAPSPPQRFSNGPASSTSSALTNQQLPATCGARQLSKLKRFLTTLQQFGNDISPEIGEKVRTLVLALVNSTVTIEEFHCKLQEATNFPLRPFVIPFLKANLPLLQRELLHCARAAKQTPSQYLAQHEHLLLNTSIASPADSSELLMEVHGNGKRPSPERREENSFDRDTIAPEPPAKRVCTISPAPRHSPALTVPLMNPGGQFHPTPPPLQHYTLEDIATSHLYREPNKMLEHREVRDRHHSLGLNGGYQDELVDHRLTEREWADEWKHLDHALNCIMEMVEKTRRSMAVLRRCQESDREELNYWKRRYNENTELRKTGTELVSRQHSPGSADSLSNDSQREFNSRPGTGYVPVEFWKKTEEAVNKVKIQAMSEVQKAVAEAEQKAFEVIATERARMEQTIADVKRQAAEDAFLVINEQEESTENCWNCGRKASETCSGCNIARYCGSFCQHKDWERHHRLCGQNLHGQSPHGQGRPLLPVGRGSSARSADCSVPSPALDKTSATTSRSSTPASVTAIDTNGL
UniProt Q86X55: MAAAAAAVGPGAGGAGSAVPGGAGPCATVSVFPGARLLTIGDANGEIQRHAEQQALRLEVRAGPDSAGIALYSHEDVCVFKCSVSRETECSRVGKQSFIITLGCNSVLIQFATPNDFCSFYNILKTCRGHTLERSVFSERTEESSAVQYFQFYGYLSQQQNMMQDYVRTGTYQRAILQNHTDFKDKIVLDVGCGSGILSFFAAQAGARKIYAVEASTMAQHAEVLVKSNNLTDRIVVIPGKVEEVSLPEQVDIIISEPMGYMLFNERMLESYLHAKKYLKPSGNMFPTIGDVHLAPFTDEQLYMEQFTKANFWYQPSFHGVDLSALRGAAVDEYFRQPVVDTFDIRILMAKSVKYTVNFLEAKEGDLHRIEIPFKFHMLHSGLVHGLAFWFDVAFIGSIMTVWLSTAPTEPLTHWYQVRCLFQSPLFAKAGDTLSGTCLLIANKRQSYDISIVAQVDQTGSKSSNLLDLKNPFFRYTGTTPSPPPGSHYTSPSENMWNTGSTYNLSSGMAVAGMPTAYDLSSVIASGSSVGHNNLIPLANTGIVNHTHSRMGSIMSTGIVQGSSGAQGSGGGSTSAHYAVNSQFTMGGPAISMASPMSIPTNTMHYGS
UniProt P08174: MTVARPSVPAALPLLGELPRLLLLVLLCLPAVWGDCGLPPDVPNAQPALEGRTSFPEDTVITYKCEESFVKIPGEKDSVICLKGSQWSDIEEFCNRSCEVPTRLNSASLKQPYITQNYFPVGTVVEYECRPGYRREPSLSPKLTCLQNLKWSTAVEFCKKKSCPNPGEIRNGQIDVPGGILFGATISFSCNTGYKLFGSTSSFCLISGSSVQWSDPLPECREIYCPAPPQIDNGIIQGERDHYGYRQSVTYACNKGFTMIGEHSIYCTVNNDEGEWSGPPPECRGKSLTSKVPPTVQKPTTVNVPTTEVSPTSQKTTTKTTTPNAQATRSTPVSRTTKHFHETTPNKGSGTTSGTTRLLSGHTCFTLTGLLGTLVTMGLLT
UniProt P55212: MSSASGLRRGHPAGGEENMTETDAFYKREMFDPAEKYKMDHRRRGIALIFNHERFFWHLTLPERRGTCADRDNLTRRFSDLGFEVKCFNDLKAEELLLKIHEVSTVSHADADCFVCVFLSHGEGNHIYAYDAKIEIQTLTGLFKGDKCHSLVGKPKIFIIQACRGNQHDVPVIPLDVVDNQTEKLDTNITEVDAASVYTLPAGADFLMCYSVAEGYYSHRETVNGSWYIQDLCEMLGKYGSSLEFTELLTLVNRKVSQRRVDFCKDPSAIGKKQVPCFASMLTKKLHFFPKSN
UniProt Q9H6F5: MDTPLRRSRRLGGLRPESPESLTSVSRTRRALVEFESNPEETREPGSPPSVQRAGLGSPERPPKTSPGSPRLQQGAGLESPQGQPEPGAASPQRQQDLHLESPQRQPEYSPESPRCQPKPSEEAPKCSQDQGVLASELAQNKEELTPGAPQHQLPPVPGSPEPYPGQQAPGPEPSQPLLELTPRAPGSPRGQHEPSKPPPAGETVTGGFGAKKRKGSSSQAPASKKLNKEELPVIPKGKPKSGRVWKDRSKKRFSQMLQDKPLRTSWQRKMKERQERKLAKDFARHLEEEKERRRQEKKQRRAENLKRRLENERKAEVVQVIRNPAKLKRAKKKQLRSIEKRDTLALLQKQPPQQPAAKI

[2] = compound: Cc1nc(Nc2n[nH]c3c2CN(C(=O)N[C@H](CN(C)C)c2ccccc2)C3(C)C)c2sccc2n1
Method in brief: as §1

[3] = compound: Cc1nc(Nc2ncc(C(=O)Nc3c(C)cccc3Cl)s2)cc(N2CCN(CCO)CC2)n1 [dasatinib]
Method in brief: as §1

[4] = compound: Cc1ncc(-c2ccnc(Nc3ccc(S(C)(=O)=O)cc3)n2)n1C(C)C
Method in brief: as §1

[5] = compound: Cn1cc(-c2ccc3c(c2)CCN3C(=O)Cc2cccc(C(F)(F)F)c2)c2c(N)ncnc21
Method in brief: as §1

[6] = compound: Cn1cc(CNCC2CCN(c3ncc(C(=O)NO)cn3)CC2)c2ccccc21 [quisinostat]
Method in brief: as §1

[7] = compound: Cn1cncc1[C@@](N)(c1ccc(Cl)cc1)c1ccc2c(c1)c(-c1cccc(Cl)c1)cc(=O)n2C [tipifarnib]
Method in brief: as §1

[8] = compound: NC(=O)Nc1cc(-c2cccc(F)c2)sc1C(=O)N[C@H]1CCCNC1
Method in brief: as §1

[9] = compound: NC(=O)c1cnc(N[C@@H]2CCCC[C@@H]2N)nc1Nc1cccc(-n2nccn2)c1
Method in brief: as §1

[10] = compound: NC1(c2ccc(-c3nc4ccn5c(=O)[nH]nc5c4cc3-c3ccccc3)cc2)CCC1
Method in brief: as §1

[11] = compound: NCC(=O)Nc1ccc(-n2nc(C(F)(F)F)cc2-c2ccc3c(ccc4ccccc43)c2)cc1
Method in brief: as §1

[12] = compound: O=C(CCCCCCC(=O)Nc1ccccc1)NO [vorinostat]
Method in brief: as §1

[13] = compound: O=C(O)c1ccc2c(c1)nc(Nc1cccc(Cl)c1)c1ccncc12 [silmitasertib]
Method in brief: as §1

[14] = compound: O=C1NC(=O)C(c2cnc3ccccn23)=C1c1cn2c3c(cc(F)cc13)CN(C(=O)N1CCCCC1)CC2
Method in brief: as §1

[15] = compound: c1cn2cc(-c3ccc4cn[nH]c4c3)nc(Nc3ccc(N4CCOCC4)cc3)c2n1 [entospletinib]
Method in brief: as §1

Measured: log2 fold change

CARD8 isoform 5 (UniProt Q9Y2G2)
inactive: [1] 0.001 | [2] -0.023 | [3] 0.013 | [4] 0.06 | [5] -0.045 | [6] 0.004 | [7] -0.031 | [8] 0.02 | [9] 0.048 | [10] -0.016 | [11] 0.032 | [12] 0.08 | [13] 0.039 | [14] 0.027 | [15] -0.059

CCDC124 (UniProt Q96CT7)
inactive: [1] 0.028 | [2] -0.012 | [3] 0.008 | [4] 0.018 | [5] -0.021 | [6] 0.021 | [7] 0.071 | [8] -0.014 | [9] -0.02 | [10] -0.027 | [11] -0.018 | [12] 0.097 | [13] -0.007 | [14] 0.005 | [15] 0.022

CBS (UniProt P35520)
inactive: [1] -0.002 | [2] 0.038 | [3] 0.024 | [4] -0.038 | [5] 0.003 | [6] 0.026 | [7] 0.022 | [8] 0.006 | [9] -0.002 | [10] 0.016 | [11] -0.049 | [12] 0.013 | [13] 0.008 | [14] -0.042 | [15] 0.015

CCAR2 (UniProt Q8N163)
active: [12] -0.399
inactive: [1] -0.001 | [2] -0.016 | [3] -0.069 | [4] -0.017 | [5] 0.018 | [6] -0.033 | [7] -0.013 | [8] 0.027 | [9] 0.014 | [10] -0.007 | [11] 0.01 | [13] 0.002 | [14] -0.02 | [15] 0.02

CCT4 (UniProt P50991)
inactive: [1] 0.04 | [2] -0.001 | [3] 0.047 | [4] 0.025 | [5] 0.04 | [6] 0.03 | [7] -0.004 | [8] -0.031 | [9] -0.004 | [10] 0.025 | [11] 0.013 | [12] 0.021 | [13] 0.018 | [14] 0.008 | [15] 0.033

CBFA2T2 isoform 4 (UniProt O43439)
inactive: [1] -0.003 | [2] -0.003 | [3] 0.036 | [4] 0.004 | [5] -0.131 | [6] 0.053 | [7] -0.003 | [8] -0.046 | [9] 0.029 | [10] -0.075 | [11] 0.026 | [12] -0.016 | [13] 0.016 | [14] 0.06 | [15] -0.035

CARM1 (UniProt Q86X55)
inactive: [1] -0.009 | [2] 0.007 | [3] -0.016 | [4] 0.008 | [5] -0.006 | [6] -0.017 | [7] -0.064 | [8] 0.024 | [9] 0 | [10] -0.01 | [11] 0.015 | [12] 0.025 | [13] -0.009 | [14] -0.024 | [15] 0.014

CD55 isoform 7 (UniProt P08174)
inactive: [1] 0.014 | [2] 0.003 | [3] 0.022 | [4] 0.001 | [5] 0.042 | [6] -0.056 | [7] -0.042 | [8] -0.041 | [9] -0.021 | [10] 0.009 | [11] 0.002 | [12] 0.154 | [13] -0.04 | [14] 0.003 | [15] -0.002

CASP6 (UniProt P55212)
inactive: [1] 0.018 | [2] 0.017 | [3] 0.005 | [4] -0.026 | [5] -0.001 | [6] 0.013 | [7] -0.027 | [8] -0.034 | [9] 0.003 | [10] 0.023 | [11] -0.014 | [12] -0.049 | [13] 0.045 | [14] -0.018 | [15] -0.01

Pulled one by one from above, two records:
CARM1 (UniProt Q86X55)
inactive: [1] -0.009 | [2] 0.007 | [3] -0.016 | [4] 0.008 | [5] -0.006 | [6] -0.017 | [7] -0.064 | [8] 0.024 | [9] 0 | [10] -0.01 | [11] 0.015 | [12] 0.025 | [13] -0.009 | [14] -0.024 | [15] 0.014

CCT4 (UniProt P50991)
inactive: [1] 0.04 | [2] -0.001 | [3] 0.047 | [4] 0.025 | [5] 0.04 | [6] 0.03 | [7] -0.004 | [8] -0.031 | [9] -0.004 | [10] 0.025 | [11] 0.013 | [12] 0.021 | [13] 0.018 | [14] 0.008 | [15] 0.033

The list continues.

CCDC86 (UniProt Q9H6F5)
inactive: [1] 0.047 | [2] 0.017 | [3] 0.054 | [4] 0.06 | [5] -0.009 | [6] -0.02 | [7] 0.035 | [8] 0.001 | [9] 0.025 | [10] -0.024 | [11] 0.042 | [12] 0.13 | [13] -0.029 | [14] 0 | [15] -0.048
